Reference: PubChem BioAssay AID504467 (National Center for Advancing Translational Sciences (NCATS), 2011)
The campaign covered roughly 330,000 compounds. About 7,700 (2.3%) were called active. Inconclusive means that the source gave no clear call. Such entries were picked first, then a sample of the others. Calls follow the shape of the dose curve; as a rule, active = well fitted inhibition curve with a large enough effect; inconclusive = small, poorly fitted or top-dose-only effect, or effect the other way; inactive = flat fitted curve, though single readings scatter. Where the call is inconclusive, the potency comes from a doubtful curve fit.

Test: qHTS screen for small molecules that inhibit ELG1-dependent DNA repair in human embryonic kidney (HEK293T) cells expressing luciferase-tagged ELG1; also: nearly all actives have a fitted effect of over 55% in size
Settings: HEK293T ELG1-luciferase reporter, luminescence, 16 h, DNA damage induced by 5-fluorouridine; series mostly up to 46.1 µM
Procedure, shortened: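 DMSO vehicle served as the neutral condition. Each well held 2,000 cells given 5-fluorouridine plus compound; after 16 hr at 37 °C/5% CO2, ONE-Glo was added and luciferase measured 30 min later.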
Potency is read from the fitted curve at half-maximal effect.

| SMILES | Potency |
| --- | --- |
| C=C1C(C(=O)Nc2ccc(OC)cc2)C1C(=O)Nc1ccc(OC)cc1 (stereo not given) | inconclusive: 32.6 µM [activator, partial curve, poor fit] |
| CCOC(=O)CCc1c(C)nc2cc(-c3ccc(F)cc3)[nH]n2c1=O | inconclusive: 29.1 µM [activator, single point] |
| Cc1nc(Nc2ccc3c(c2)OCCO3)c2nnn(Cc3ccccc3Cl)c2n1 | inconclusive: 29.1 µM [inhibitor, single point] |
| O=C(COC(=O)CNC(=O)c1ccccc1F)Nc1ccc2c(c1)OCCO2 | inconclusive: 14.6 µM [activator, single point] |
| COc1ccc(NC(=O)CSc2cn[nH]n2)cc1OC | inconclusive: 32.6 µM [activator, partial curve, poor fit] |
| S=C(NCc1ccco1)Nc1ccccc1Cl | inactive |
| Cc1c(Cl)cccc1N1C(=O)CC(NNC(=O)c2ccc3c(c2)OCO3)C1=O (stereo not given) | inactive |
| Cc1cc(C)cc(NC(=O)COc2ccc(C(=S)N3CCOCC3)cc2)c1 | inconclusive: 20.6 µM [inhibitor, partial curve, poor fit] |
| Oc1ccc(/C=N/Nc2nc(-c3cccnc3)nc3ccccc23)c(O)c1 | active: 16.4 µM |
| O=C(O)CCCNC(=O)c1cccc(C(=O)NCCCC(=O)O)n1 | inactive |
| COc1ccccc1N1CCN(C(=O)CSc2nc(C)c(Cc3ccccc3)c(=O)[nH]2)CC1 | inconclusive: 13 µM [inhibitor, partial curve, poor fit] |
| CCCN(CCC)c1ccc(C(O)c2nnc(-c3ccccc3)o2)cc1 (stereo not given) | active: 20.6 µM |
| COc1ccc(NC(=S)NC(C)Cc2cccs2)cc1 (stereo not given) | inactive |
| COc1cccc(-c2nnc3sc(-c4ccco4)nn23)c1 | inconclusive: 4.61 µM [activator, full curve] |
| Cc1ccc(C(=O)COc2ccc3c(C)cc(=O)oc3c2)cc1 | inconclusive: 29.1 µM [activator, partial curve, poor fit] |
| Cc1ccc(C)c(N2CCN(S(=O)(=O)c3ccc4c(c3)CC(C)N4C(=O)C3CC3)CC2)c1 (stereo not given) | inconclusive: 16.4 µM [inhibitor, partial curve, poor fit] |
| CCc1sc(C(=O)Nc2ccc3nc(C)sc3c2)cc1C | inconclusive: 3.66 µM [activator, partial curve] |
| O=C(CSc1nnc(NC(=O)c2ccco2)s1)Nc1ccccc1F | inactive |
| COc1ccc(-c2nnc(SCC(=O)Nc3sc4c(c3C#N)CCCC4)n2-c2ccccc2)cc1 | inactive |
| Cc1ccc2sc(N(CCCN(C)C)C(=O)CCS(=O)(=O)c3ccccc3)nc2c1C | inactive |

In another format: entries from further up.
SMILES	Potency
CCCN(CCC)c1ccc(C(O)c2nnc(-c3ccccc3)o2)cc1 (stereo not given)	active: 20.6 µM
O=C(CSc1nnc(NC(=O)c2ccco2)s1)Nc1ccccc1F	inactive
